For assay [1], the target named is endogenous METTL7A1 (mouse (endogenous in NMuMG)). The assay is described as follows: co-IP; endogenous METTL7A1 with its molecular partners in NMuMG cell extracts; immunoblot. A general note: A western blot detects proteins with antibodies after separation by electrophoresis.
The target of assay [2] is FLAG-tagged METTL7A1 (4T1-METTL7A1 cells) (mouse). The assay is described as follows: co-IP; FLAG-tagged METTL7A1 with its molecular partners in 4T1 cell extracts; when indicated extracts pre-treated 30 min at 37°C with RNase A (100 μg/ml), interactions unaffected; immunoblot.

This note sets out measurements from article PMC9303270.

Results are given in words; binding and its absence hold for the method and conditions named. Binding seen in cells or lysates may run through a third protein. Binding calls can cover weak binding; strength is not graded here.

B1: SYNCRIP (protein, UniProt Q7TMK9 1-623)
chain: MATEHVNGNGTEEPMDTTSAVIHSENFQTLLDAGLPQKVAEKLDEIYVAGLVAHSDLDERAIEALKEFNEDGALAVLQQFKDSDLSHVQNKSAFLCGVMKTYRQREKQGTKVADSSKGPDEAKIKALLERTGYTLDVTTGQRKYGGPPPDSVYSGQQPSVGTEIFVGKIPRDLFEDELVPLFEKAGPIWDLRLMMDPLTGLNRGYAFVTFCTKEAAQEAVKLYNNHEIRSGKHIGVCISVANNRLFVGSIPKSKTKEQILEEFSKVTEGLTDVILYHQPDDKKKNRGFCFLEYEDHKTAAQARRRLMSGKVKVWGNVGTVEWADPIEDPDPEVMAKVKVLFVRNLANTVTEEILEKSFSQFGKLERVKKLKDYAFIHFDERDGAVKAMEEMNGKDLEGENIEIVFAKPPDQKRKERKAQRQAAKNQMYDDYYYYGPPHMPPPTRGRGRGGRGGYGYPPDYYGYEDYYDYYGYDYHNYRGGYEDPYYGYEDFQVGARGRGGRGARGAAPSRGRGAAPPRGRAGYSQRGGPGSARGVRGARGGAQQQRGRGVRGARGGRGGNVGGKRKADGYNQPDTKRRQTNNQNWGSQPIAQQPLQGGDHSGNYGYKSENQEFYQDTFGQQWK
For B1, the binding entry in assay [1] and in assay [2] was “binds” each time.

B2: IPO5 (protein, UniProt Q8BKC5 1-1097)
chain: MAAAAAEQQQFYLLLGNLLSPDNVVRKQAEETYENIPGRSKITFLLQAIRNTTAAEEARQMAAVLLRRLLSSAFDEVYPALPSDVQTAIKSELLMIIQMETQSSMRKKICDIAAELARNLIDEDGNNQWPEGLKFLFDSVSSQNMGLREAALHIFWNFPGIFGNQQQHYLDVIKRMLVQCMQDQEHPSIRTLSARATAAFILANEHNVALFKHFADLLPGFLQAVNDSCYQNDDSVLKSLVEIADTVPKYLRPHLEATLQLSLKLCGDTNLNNMQRQLALEVIVTLSETAAAMLRKHTSLIAQTIPQMLAMMVDLEEDEDWANADELEDDDFDSNAVAGESALDRMACGLGGKLVLPMIKEHIMQMLQNPDWKYRHAGLMALSAIGEGCHQQMEGILNEIVNFVLLFLQDPHPRVRYAACNAVGQMATDFAPGFQKKFHEKVIAALLQTMEDQGNQRVQAHAAAALINFTEDCPKSLLIPYLDNLVKHLHSIMVLKLQELIQKGTKLVLEQVVTSIASVADTAEEKFVPYYDLFMPSLKHIVENAVQKELRLLRGKTIECISLIGLAVGKEKFMQDASDVMQLLLKTQTDFNDMEDDDPQISYMISAWARMCKILGKEFQQYLPVVMGPLMKTASIKPEVALLDTQDMENMSDDDGWEFVNLGDQQSFGIKTAGLEEKSTACQMLVCYAKELKEGFVEYTEQVVKLMVPLLKFYFHDGVRVAAAESMPLLLECARVRGPEYLTQMWHFMCDALIKAIGTEPDSDVLSEIMHSFAKCIEVMGDGCLNNEHFEELGGILKAKLEEHFKNQELRQVKRQDEDYDEQVEESLQDEDDNDVYILTKVSDILHSIFSSYKEKVLPWFEQLLPLIVNLICPQRPWPDRQWGLCIFDDIVEHCSPASFKYAEYFISPMLQYVCDNSPEVRQAAAYGLGVMAQFGGDNYRPFCTDALPLLVRVIQAPEAKTKENVNATENCISAVGKIMKFKPDCVNVEEVLPHWLSWLPLHEDKEEAVQTFSYLCDLIESNHPIVLGPNNTNLPKIFSIIAEGEMHEAIKHEDPCAKRLANVVRQVQTSGGLWTECIAQLSPEQQAAIQELLNSA
For B2, the binding entry in assay [1] and in assay [2] was “binds” each time.
